{"source": "PubChem BioAssay AID504791 (Drosophila RNAi Screening Center, 2011)", "screen": "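Genes of the fly required for silencing by miRNA, siRNA or endo-siRNA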 (primary screen)", "cells": "Drosophila S2-derived reporter cells", "reagents": "long dsRNA against Drosophila genes, about 150-250 ng dsRNA per well (siRNA assay); about 80-120 ng (miRNA assay)", "timing": "about 5 days (siRNA assay); about 4 days (miRNA assay)", "conditions": "copper sulfate induction of reporters: 25 µM (siRNA assay); 200 mM stated (miRNA assay), 1-2 days before reading", "measured": "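Per-well ratio of Renilla over firefly light, expressed relative to that plate's average ratio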", "units": "stable assay Renilla, run 1 in luminescence; stable assay firefly, run 1 in luminescence", "call rule": "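a well was a first-pass pick when its plate-scaled ratio rose above 1.5 (siRNA assay) or 1.6 (miRNA assay), or dropped below 0.6; a gene counted only if two separate dsRNAs agreed on retest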", "note": "The deposit covers about 23,000 reagents; this is a random part of those that have a named target and a result. Of all reagents, 199 (0.86%) are marked active. 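Plate-scaled ratios behind the calls are not deposited; printed light signals are raw; many rows marked increased or decreased are still called inactive.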 Unmarked entries are inactive. A plus sign joins genes that one reagent is predicted to hit. No sequences are given here. Not stated in the record: the direction of the score."}
{"predicted target": "CG4004", "DRSC id": "DRSC19791", "stable siRNA reporter change": "reporter ratio lowered past the hit cutoff", "stable assay Renilla, run 1": 4855, "stable assay firefly, run 1": 4.68e5}
{"predicted target": "CG4004", "DRSC id": "DRSC19882", "stable assay Renilla, run 1": 5414, "stable assay firefly, run 1": 4.14e5}
{"predicted target": "CG42675", "DRSC id": "DRSC12157", "stable assay Renilla, run 1": 8556, "stable assay firefly, run 1": 5.08e5}
{"predicted target": "CG42675", "DRSC id": "DRSC21868", "stable assay Renilla, run 1": 10566, "stable assay firefly, run 1": 8.22e5}
{"predicted target": "Rpt2 (Regulatory particle triple-A ATPase 2)", "DRSC id": "DRSC16799", "stable assay Renilla, run 1": 9884, "stable assay firefly, run 1": 3.13e5}
{"predicted target": "Rpt2 (Regulatory particle triple-A ATPase 2)", "DRSC id": "DRSC25012", "miRNA reporter change": "reporter ratio raised past the hit cutoff (active)"}
{"predicted target": "Obp56c (Odorant-binding protein 56c)", "DRSC id": "DRSC06552", "stable assay Renilla, run 1": 4452, "stable assay firefly, run 1": 3.21e5}
{"predicted target": "Obp56c (Odorant-binding protein 56c)", "DRSC id": "DRSC22325", "stable assay Renilla, run 1": 8789, "stable assay firefly, run 1": 6.31e5}
{"predicted target": "Picot", "DRSC id": "DRSC07508", "stable siRNA reporter change": "reporter ratio lowered past the hit cutoff", "stable assay Renilla, run 1": 5803, "stable assay firefly, run 1": 3.89e5}
{"predicted target": "FoxK (Forkhead box K)", "DRSC id": "DRSC09859", "stable assay Renilla, run 1": 6623, "stable assay firefly, run 1": 4.23e5}
{"predicted target": "FoxK (Forkhead box K)", "DRSC id": "DRSC24971", "miRNA reporter change": "reporter ratio lowered past the hit cutoff"}
{"predicted target": "snoRNA:Me28S-C3227a + snoRNA:Me18S-A1061 + snoRNA:Me28S-C3227b + 7 more", "DRSC id": "DRSC05497", "stable assay Renilla, run 1": 6162, "stable assay firefly, run 1": 4.81e5}
{"predicted target": "twf (twinfilin)", "DRSC id": "DRSC15466", "stable assay Renilla, run 1": 7959, "stable assay firefly, run 1": 4.50e5}
{"predicted target": "CG31826", "DRSC id": "DRSC03357", "stable assay Renilla, run 1": 8162, "stable assay firefly, run 1": 5.54e5}
{"predicted target": "Rab40", "DRSC id": "DRSC19820", "stable assay Renilla, run 1": 5291, "stable assay firefly, run 1": 4.68e5}
{"predicted target": "TyrR (Tyramine receptor)", "DRSC id": "DRSC16242", "stable siRNA reporter change": "reporter ratio lowered past the hit cutoff", "stable assay Renilla, run 1": 6691, "stable assay firefly, run 1": 5.49e5}
{"predicted target": "ND-51L2 (NADH dehydrogenase (ubiquinone) 51 kDa subunit-like 2)", "DRSC id": "DRSC07080", "stable assay Renilla, run 1": 6431, "stable assay firefly, run 1": 3.83e5}
{"predicted target": "Eb1", "DRSC id": "DRSC05016", "stable assay Renilla, run 1": 6598, "stable assay firefly, run 1": 4.82e5}
{"predicted target": "CG12766", "DRSC id": "DRSC08295", "stable assay Renilla, run 1": 5411, "stable assay firefly, run 1": 3.40e5}
{"predicted target": "CG13058", "DRSC id": "DRSC09941", "stable assay Renilla, run 1": 7300, "stable assay firefly, run 1": 3.80e5}
{"predicted target": "CG3701 (retired record)", "DRSC id": "DRSC04408", "stable assay Renilla, run 1": 6631, "stable assay firefly, run 1": 4.71e5}
{"predicted target": "CG3701 (retired record)", "DRSC id": "DRSC04409", "stable assay Renilla, run 1": 6675, "stable assay firefly, run 1": 5.27e5}
{"predicted target": "CG13331", "DRSC id": "DRSC06366", "stable assay Renilla, run 1": 6931, "stable assay firefly, run 1": 3.68e5}
{"predicted target": "sca (scabrous)", "DRSC id": "DRSC07677", "stable assay Renilla, run 1": 5723, "stable assay firefly, run 1": 3.03e5}
{"predicted target": "spz3 (spatzle 3)", "DRSC id": "DRSC02391", "stable assay Renilla, run 1": 7911, "stable assay firefly, run 1": 4.41e5}
{"predicted target": "spz3 (spatzle 3)", "DRSC id": "DRSC03008", "stable assay Renilla, run 1": 7359, "stable assay firefly, run 1": 3.54e5}
{"predicted target": "CG3663", "DRSC id": "DRSC04402", "stable assay Renilla, run 1": 22189, "stable assay firefly, run 1": 1.40e6}
{"predicted target": "CG43902", "DRSC id": "DRSC17999", "stable assay Renilla, run 1": 5704, "stable assay firefly, run 1": 3.97e5}

Laid out differently: results already given
predicted target,DRSC id,stable siRNA reporter change,miRNA reporter change,"stable assay Renilla, run 1","stable assay firefly, run 1"
CG31826,DRSC03357,,,8162,5.54e5
Rab40,DRSC19820,,,5291,4.68e5
TyrR (Tyramine receptor),DRSC16242,reporter ratio lowered past the hit cutoff,,6691,5.49e5
ND-51L2 (NADH dehydrogenase (ubiquinone) 51 kDa subunit-like 2),DRSC07080,,,6431,3.83e5
